Record: PubChem BioAssay AID1259254 (NCATS, 2017)
The whole screen tested about 59,000 reagents; shown is an unselected part. In the full data, about 1,550 (2.6%) were called active. 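G2 share is only a proxy for re-replication; each gene was hit by three separate siRNAs, and active genes were retested.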 A number with no mark means an inactive call. Reagents against one gene are numbered here. Further read-outs or replicates are left out here. The record does not give: the amount of reagent.

- Test: 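Finding genes that stop cells copying their DNA twice in one cycle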 (primary screen)
- System: human HCT116 colorectal cancer cells
- Knock-down reagent: single siRNA against human genes
- Timing: 3 days
- Measured: 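Nuclei stained with Hoechst and imaged; cell-cycle phase assigned by DNA content; G2 share scaled per plate, non-targeting siRNA 0%, GMNN siRNA 100%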
- Direction: G2 robust z-score and G2 cells, % of GMNN control: higher = more G2 cells, more excess DNA replication
- Hit rule: 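Active siRNAs have a G2 robust z of 5 or more median absolute deviations over the median, which in these data means about 38% or higher of GMNN control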

Against PPA2 #1, the entry reads G2 robust z-score -0.921; G2 cells, % of GMNN control -3.52.
PPA2 #2 showed G2 robust z-score 0.072; G2 cells, % of GMNN control 3.47.
Depletion of PPA2 #3 resulted in: G2 robust z-score 0.951; G2 cells, % of GMNN control 9.66.
CCNY #1 scored G2 robust z-score 0.307; G2 cells, % of GMNN control 5.13.
After knock-down of CCNY #2 the results were G2 robust z-score -0.406; G2 cells, % of GMNN control 0.11.
Against CCNY #3, the values are G2 robust z-score 0.475; G2 cells, % of GMNN control 6.31.
Depletion of FOXB1 #1 gave: G2 robust z-score -0.613; G2 cells, % of GMNN control -1.35.
With knock-down of FOXB1 #2, the record shows G2 robust z-score -0.447; G2 cells, % of GMNN control -0.174.
Knock-down of FOXB1 #3 gave: G2 robust z-score 0.962; G2 cells, % of GMNN control 9.73.
KLC4 #1 showed G2 robust z-score 0.235; G2 cells, % of GMNN control 4.62.
Knock-down of KLC4 #2 came out at: G2 robust z-score 1.01; G2 cells, % of GMNN control 10.1.
KLC4 #3 scored G2 robust z-score 2.92; G2 cells, % of GMNN control 23.5.
Against LINC00869 #1 the deposit lists G2 robust z-score 0.0905; G2 cells, % of GMNN control 3.6.
After knock-down of LINC00869 #2 the results were G2 robust z-score -0.968; G2 cells, % of GMNN control -3.84.
After knock-down of LINC00869 #3, the screen gave G2 robust z-score 0.693; G2 cells, % of GMNN control 7.85.
NGB #1 showed G2 robust z-score 0.506; G2 cells, % of GMNN control 6.53.
For NGB #2 the deposit lists G2 robust z-score -0.194; G2 cells, % of GMNN control 1.6.
Silencing of NGB #3 came out at: G2 robust z-score 0.131; G2 cells, % of GMNN control 3.89.
NGB #4 scored G2 robust z-score 2.73; G2 cells, % of GMNN control 22.1.
Against NGB #5, the values are G2 robust z-score -0.612; G2 cells, % of GMNN control -1.34.
NGB #6 gave G2 robust z-score 3.81; G2 cells, % of GMNN control 29.8.
Against ETFBKMT #1, the entry reads G2 robust z-score 0.574; G2 cells, % of GMNN control 7.
With knock-down of ETFBKMT #2, the screen gave G2 robust z-score -0.776; G2 cells, % of GMNN control -2.49.
Against ETFBKMT #3, the values are G2 robust z-score -0.642; G2 cells, % of GMNN control -1.55.
